Data as given in US10696710B2, “Pharmaceutical targeting of a mammalian cyclic di-nucleotide signaling pathway” (Board of Regents, The University of Texas System, priority 2012, dated 2020).
At least one structure is not confirmed: it was looked up by name or label, or the drawing left a doubt.

Test: Adjuvant effect with ovalbumin (OVA) immunization in mice
Conditions: for production of OVA-specific antibodies: i.m. with OVA, boost day 10, ELISA day 17
[1] = splenic leukocytes of WT mice immunized with OVA+2′3′cGAMP for 7 days, versus OVA alone

Nc1nc2c(ncn2[C@@H]2O[C@@H]3COP(=O)(O)O[C@H]4[C@@H](O)[C@H](n5cnc6c(N)ncnc65)O[C@@H]4COP(=O)(O)O[C@@H]2[C@@H]3O)c(=O)[nH]1 [2′3′-cGAMP]
production of OVA-specific antibodies (Sting gt/gt mice): not | production of OVA-specific antibodies (WT mice): strongly enhanced | IFNγ produced by CD4 and CD8 T cells after stimulation with cognate OVA peptides [1]: elevated levels | IL-2 produced by CD4 and CD8 T cells after stimulation with cognate OVA peptides [1]: elevated levels | adjuvant effect (OVA-specific antibodies) (type-I interferon receptor deficient mice (Ifnar−/−)): not observed
